The target in the test is recombinant thrombospondin-1 (TSP-1) (UniProt P07996). Briefly: SPR (Biacore).

Sequences of proteins named here, by UniProt entry; tags and fusion partners are left off. Residues count along the entry.
UniProt P07996, residues 19-1170: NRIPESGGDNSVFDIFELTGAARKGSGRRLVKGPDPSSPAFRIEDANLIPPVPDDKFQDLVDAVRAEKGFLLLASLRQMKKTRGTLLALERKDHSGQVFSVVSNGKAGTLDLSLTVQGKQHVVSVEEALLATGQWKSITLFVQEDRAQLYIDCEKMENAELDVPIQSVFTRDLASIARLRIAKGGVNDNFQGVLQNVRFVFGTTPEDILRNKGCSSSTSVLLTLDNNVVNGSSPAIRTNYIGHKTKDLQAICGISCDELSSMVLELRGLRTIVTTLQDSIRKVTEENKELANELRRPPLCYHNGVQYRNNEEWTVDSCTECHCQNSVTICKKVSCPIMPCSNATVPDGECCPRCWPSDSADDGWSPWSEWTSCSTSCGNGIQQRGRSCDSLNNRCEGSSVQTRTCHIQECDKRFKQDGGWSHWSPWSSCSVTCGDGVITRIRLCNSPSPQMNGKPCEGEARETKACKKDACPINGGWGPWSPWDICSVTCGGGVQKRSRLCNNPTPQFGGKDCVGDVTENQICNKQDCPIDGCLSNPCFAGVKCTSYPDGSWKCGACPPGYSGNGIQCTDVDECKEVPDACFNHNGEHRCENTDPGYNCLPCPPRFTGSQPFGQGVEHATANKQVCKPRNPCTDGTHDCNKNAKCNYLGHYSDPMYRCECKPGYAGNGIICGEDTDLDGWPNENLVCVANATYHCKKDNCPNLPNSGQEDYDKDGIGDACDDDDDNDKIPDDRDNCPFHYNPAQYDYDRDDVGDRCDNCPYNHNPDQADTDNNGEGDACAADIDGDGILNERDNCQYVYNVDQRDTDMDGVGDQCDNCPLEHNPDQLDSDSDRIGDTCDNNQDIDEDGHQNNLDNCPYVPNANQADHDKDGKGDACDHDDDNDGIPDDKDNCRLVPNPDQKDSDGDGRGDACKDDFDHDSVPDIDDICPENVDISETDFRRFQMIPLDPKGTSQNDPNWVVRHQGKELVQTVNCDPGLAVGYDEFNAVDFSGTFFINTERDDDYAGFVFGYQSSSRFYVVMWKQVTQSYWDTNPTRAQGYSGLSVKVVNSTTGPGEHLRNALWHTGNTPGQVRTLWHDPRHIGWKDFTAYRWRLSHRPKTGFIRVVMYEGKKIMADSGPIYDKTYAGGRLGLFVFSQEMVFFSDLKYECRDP
UniProt Q08722, residues 19-141: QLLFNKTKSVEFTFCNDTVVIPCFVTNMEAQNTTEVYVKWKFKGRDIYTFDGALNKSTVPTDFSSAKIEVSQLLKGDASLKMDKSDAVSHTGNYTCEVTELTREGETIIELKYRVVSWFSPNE

No constants are given. Whether binding was seen depends on the method and setting. Some binding calls cover weakened binding; strength is not graded here.

“recombinant CD47 extracellular domain (ECD) (from UniProt Q08722 19-141) (receptor)”: the binding entry is recorded as “binds”.

The values above are taken from patent US20210371522A1.
